{
  "sequences": {"note": "Sequences of proteins named here, by UniProt entry; tags and fusion partners are left off.", "UniProt Q03330": "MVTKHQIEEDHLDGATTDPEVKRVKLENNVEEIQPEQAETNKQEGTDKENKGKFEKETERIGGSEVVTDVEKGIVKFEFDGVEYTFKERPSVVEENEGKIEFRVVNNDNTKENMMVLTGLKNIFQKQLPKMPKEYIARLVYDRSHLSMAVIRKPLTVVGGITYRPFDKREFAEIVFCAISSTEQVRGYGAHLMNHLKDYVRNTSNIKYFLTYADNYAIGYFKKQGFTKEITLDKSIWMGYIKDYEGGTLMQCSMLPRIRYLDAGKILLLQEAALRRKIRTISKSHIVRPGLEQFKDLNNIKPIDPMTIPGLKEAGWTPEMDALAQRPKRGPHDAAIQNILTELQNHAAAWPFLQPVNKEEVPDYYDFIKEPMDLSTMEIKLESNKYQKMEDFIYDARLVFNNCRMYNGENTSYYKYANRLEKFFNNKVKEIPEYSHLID"},
  "source": "paper PMC509278",
  "biological_target": "Gcn5p (yeast (endogenous in strain UCC1111)) (UniProt Q03330)",
  "assay": "SEC; Superose 6 HR 10/30 in DN(350) of HatB3.1 partially purified from yeast nuclear extract (DEAE, CM flow-through, Mono Q, 75% ammonium sulfate); peak fractions blotted with anti-Gcn5p, anti-Ada2p and anti-Ada3p",
  "note": "No constants are given. Whether binding was seen depends on the method and setting. Some binding calls cover weakened binding; strength is not graded here.",
  "data": [
    {"binder": "Ada3p (protein, UniProt P32494 1-702) MPRHGRRGKLPKGEKLPKKEGGDNTPSKLLSSMLKTLDLTFERDIGMLNGKSVRSIPNKKTLLELQSQLDSLNEILGTIARGDQETIEALRKIRDSKNEKQANDEKQETSNADGQHESSTATEETNIIDKGVQSPPKPPPSNEISGTIENDVESIKQAADNMAKEEINEDKDLQVHRDQPREKRPFDSETENRATENENTQRPDNKKQKIDVDKMENDPTVKNPKSEFVVSQTLPRAAAALGLFNEEGLESTGEDFLKKKYNVASYPTNDLKDLLPGELPDMDFSHPKPTNQIQFNTFLAFVENFFKDLSDDNLKFLKMKYIIPDSLQFDKTYDPEVNPFIIPKLGPLYTDVWFKDENDKNSAYKKPSPYSNDASTILPKKSANELDDNALESGSISCGPLLSRLLSAVLKDDNDKSELQSSKIIRDGGLPRTGGEDDIQSFRNNNNDTVDMTLSQENGPSVQTPDNDIDEEASFQAKLAENKGSNGGTTSTLPQQIGWITNGINLDYPTFEERLKRELKYVGIYMNLPKDENNPNSDDPDWVTGREDDEISAELRELQGTLKQVTKKNQKRKAQLIPLVERQLAWQEYSSILEDLDKQIDQAYVKRIRVPKKRKKHHTAASNNVNTGTTSQIAQQKAANSSLKSLLDKRQRWINKIGPLFDKPEIMKRIPNESVFKDMDQEEDEDEADVFAQNTNKDVELN", "values": [
      {"measurement": "binding", "value": "binds"}
    ]}
  ]
}
